Experimental data as given in the supplement of paper PMC3334620.
Whole data set: some 33,000 sequences, median “E-score (-0.5 to 0.5)” near -0.0014, cut for the highest 2% near 0.25. The list shows a part of the results.

Each sequence was assayed against T1, Cad1 (UniProt P24813) (assay: PBM E-score (8-mer binding enrichment) (E-score (-0.5 to 0.5)); higher = stronger / more preferred TF binding). Details: protein concentration: 100 nM; construct: GST-full length.
T1 sequence: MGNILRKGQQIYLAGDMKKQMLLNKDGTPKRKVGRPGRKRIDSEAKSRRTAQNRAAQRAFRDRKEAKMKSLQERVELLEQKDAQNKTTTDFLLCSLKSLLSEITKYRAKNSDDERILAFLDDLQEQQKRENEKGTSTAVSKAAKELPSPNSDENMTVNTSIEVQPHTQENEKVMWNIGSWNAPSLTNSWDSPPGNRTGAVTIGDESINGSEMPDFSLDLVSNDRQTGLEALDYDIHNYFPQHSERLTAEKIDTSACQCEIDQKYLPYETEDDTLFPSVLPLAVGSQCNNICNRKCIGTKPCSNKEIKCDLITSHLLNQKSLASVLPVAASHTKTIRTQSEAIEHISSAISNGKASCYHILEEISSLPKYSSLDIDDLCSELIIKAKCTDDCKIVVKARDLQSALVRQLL
In short: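 Detection of bound protein used fluorescent anti-GST, with scans normalised by masliner. The proteins were GST-tagged yeast transcription factors applied at about 100-200 nM to universal all-10-mer Agilent arrays made double-stranded by primer extension. Each ungapped eight-base word, pooled with its reverse complement, was scored with an E-score from the Universal PBM Analysis Suite.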

Sequence	PBM E-score
ACTAGTAG	0.0854
ACACTCTA	0.148
AGGTCTCA	-0.13
ATCGTACA	-0.0599
AGGAAGAG	-0.213
CATCCTAG	-0.128
CGGAATAC	0.213
GAGAGTGA	-0.0619
AAATGTCA	0.0725
ACCCGTCT	-0.128
ACGGAGAG	-0.258
TCCTCACA	-0.115
TACTAAAA	0.0457
ATATGGTG	0.0677
GCTTCCGA	-0.0158
CTCTGTAA	-0.187
ACCCCCAG	-0.327
GTGAATTA	0.135
GACCAGTA	-0.18
CCAACTTC	-0.128
ACAGAGGT	-0.00228
CTTAGAGC	-0.0659
AGCTTCCA	0.00421
ACAGGCCT	0.0153
CGTAACAC	0.124

Sequence	PBM E-score
CGTTGAAC	0.0334
GGGTGGTA	-0.115
AGCGATAA	0.139
TCTCGCCA	-0.0892
CCACACGC	0.131
GACCACGC	-0.0592
CTGGTAGA	0.011
ACCTGGTC	-0.0493
CGTGCTAC	-0.166
CGTTGTTC	0.0705
CAAGTAAA	0.0467
CGGGGTAA	-0.0162
CATTCGGA	0.154
CCATCCAA	-0.123
ACAATTTC	-0.0372
ATCTGCCG	0.0115
CTCGTGAC	0.0148
ACGACCAA	-0.0413
AAATTTCT	0.0575
CCTATGCA	0.116
CACAGAGG	-0.0509
GGACCTAC	-0.0283
ACACTTCG	-0.0366
CCTGGCCG	0.0114
GCTTGGAA	-0.0509

Sequence	PBM E-score
AGGTAATG	0.093
AATTTAAA	0.126
CAACGGTC	-0.0798
AGAGGCGA	-0.178
ACACGTAC	-0.0184
GAGCAATC	0.0311
GGAGGCCA	-0.189
GCCCCATA	-0.11
ACCTTCTA	-0.0696
AGAGGCAA	0.0368
CCAACAGA	-0.199
GCTAGGAA	-0.0561
CCTACGCG	0.107
AGTGCTCG	-0.0626
AGCGGGGA	-0.0936
CGGGTTTA	-0.0209
ACACCGCT	-0.0223
CATTCTAG	-0.198
ATCTCGAG	0.0128
GGGCTAAA	0.0452
CACCTACC	-0.128
CAGAAAAA	0.0393
AAGGTCCC	-0.19
ACGGTAAC	0.066
ATCCGGGA	-0.00639

A second format for part of the listing above.
Sequence,PBM E-score
CAACGGTC,-0.0798
AGAGGCGA,-0.178
ACACGTAC,-0.0184
GAGCAATC,0.0311
GGAGGCCA,-0.189

Further entries.

Sequence	PBM E-score
GCTCTGAA	-0.0267
AGTGTCCG	0.15
ATAGTCAC	0.097
AGGATATC	0.0233
CGATTCAA	-0.118
ACGAATCT	0.042
GCCACAAA	0.079
CAGACCGA	-0.171
CTTGATCA	0.131
GGGCTCAC	-0.176
ATCACACC	0.0325
CATGTGGA	-0.0908
CTCTACAC	-0.103
ACCAGGTC	-0.0921
AGACGAAC	0.192
ATTATCAG	-0.0126
AGATGTAC	-0.0616
ATTAAATA	0.226
ATACAGGC	-0.0561
CCTGCAAC	0.0524
AGGGTAAC	-0.151
CGATGAGA	0.0219
AGCAGGTA	-0.0965
GTATAGAC	-0.0122
CCTATGTA	-0.113

Laid out differently: results already given.
CAGACCGA
  PBM E-score = -0.171
CTTGATCA
  PBM E-score = 0.131
GGGCTCAC
  PBM E-score = -0.176
ATCACACC
  PBM E-score = 0.0325

Additional records.

Sequence	PBM E-score
GCAGATGA	0.0232
CAAACCGG	-0.0831
CGCAAACG	0.148
ACCAAGGC	-0.0921
CGGCGCTA	-0.0841
ACCCCCGT	-0.308
CCTTACGC	0.225
AATTGCTA	0.0849
CTCCTCCC	-0.192
AATTACTA	0.32
CATATTAC	0.225
AATGCTGG	0.0356
ACGGGGCA	-0.125
AGACTCGC	-0.107
AGTTGCTG	-0.0722
CATACTCC	-0.0816
AAGATACG	0.0308
CGCATAAG	0.0878
GCTGAAAC	0.0683
ATGAGTCG	0.043
GACAGCTA	-0.0363
CCCGCGGA	0.0649
ATTCTGGG	0.0931
AAACCAAG	0.142
GGTCGGAA	-0.0198

Sequence	PBM E-score
AGGACGTA	-0.129
CAGTTTTC	0.142
AGCCTGAG	-0.0629
AATGTCAA	0.133
AGACAACC	0.134
ATGCACAG	-0.00271
AAAACAGG	-0.0537
CAGTCAAC	-0.175
ACATAAAG	0.0348
AGCAGCCC	-0.243
GGGCTCTA	-0.0847
TATGCAGA	0.0639
CATTAAGA	-0.0602
GTAAGTGA	0.131
CGATATGA	-0.0023
ACTTGCTA	-0.0478
ACAGGTTC	-0.189
CGATACCG	0.07
AAGTAGGA	-0.0664
CCCATCGA	0.00956
TTAGGAAA	0.0632
CTAGAAGA	-0.16
ACCGGCCC	-0.27
AAGCTCCA	-0.0892
CGCCAGAA	0.0344

Sequence	PBM E-score
CATTCCAA	0.0895
ATACACAG	0.0693
GGGTTATA	-0.0871
CATAAAGC	-0.0155
AGGAATAC	-0.0525
TGGGGCAA	-0.152
CGGGTATC	-0.131
GCGGTCGA	0.012
ATATTTAG	0.255
ATAGCATC	0.0877
AATTTCGC	0.166
ATACGGCG	0.155
GATCCGGA	0.058
AATTGCTG	0.193
ATACCAAC	0.242
ACACGGCT	0.0272
ATGCGGCC	0.0419
GTCAGACA	0.116
CCCTTGCA	-0.155
GGAGACGA	0.0399
GCCATGAA	0.0405
CATACGCG	0.208
